From ChEMBL document CHEMBL3988442, “University of Dundee, Small-Polar-MMV Screening Library” (2021).

A: 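Whole-cell growth test on Mycobacterium tuberculosis, read after 3 days in glucose-containing 7H9 medium; the read-out is not stated. Concentration: 50 µM. Direction is inferred from retests: higher values go with more growth inhibition. Of about 69,000 compounds tested this way, about 760 (1.1%) reached 50% or more in at least one test.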
B: 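Phenotypic screen: M. tuberculosis growth, cholesterol and DPPC medium, 4 days; the read-out is not stated. Concentration: 50 µM. Higher reads as more growth inhibition (inferred: compounds with an IC50 in retests scored well above the rest). Size under these conditions: about 69,000 compounds, about 370 of them at 50% or above in at least one test.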

Results are given as percent effect. How 0% and 100% were set is not recorded. Most values in the screen are low, and negative values occur. Compounds were drawn at random from those tested, without regard to their results. Two or more numbers in one place are separate tests of the same structure; such repeats can differ widely.

| SMILES | A | B |
|---|---|---|
| `Cl.Cl.O[C@@H]1C[C@@](CNCc2ccc(F)cc2)(COc2cccnc2)C[C@@H]1O` | -17.59 & 2.856 | -11.05 |
| `CC(=O)Nc1ccc(SCC(=O)NCC2CCCO2)nn1` (centres unmarked) | -29.97 | -15.72 |
| `O=C(c1cccs1)N1CCN(C(=O)c2ncoc2-c2ccco2)CC1` | -9.406 | 6.025 |
| `CCn1ncc2c1CN(C(=O)Cc1ccccn1)CC2COC.O=C(O)C(F)(F)F.O=C(O)C(F)(F)F` (centres unmarked) | -13.29 | -27.89 & -4.312 |
| `Cc1ccc(CN2CCc3ncnc(C4CC4)c3CC2)s1.O=C(O)C(F)(F)F` | -24.37 | 12.59 |
| `Cc1ccc(S(=O)(=O)NC2CCC(=O)NC2)cc1Br` (centres unmarked) | -12.55 | -4.902 |
| `O=C(O)C(F)(F)F.[H][C@@]12COC[C@]1(COCC)CN(Cc1ccc(F)c(F)c1)C2` | 7.606 | -5.959 |
| `CN1CC2(CCN(c3nc(N)nc4c3CCNC4)CC2)OC1=O` | -18.03 | 12.22 |
| `CCc1csc(C2CCCN(C(=O)c3ccc(=O)n(CC)n3)C2)n1` (centres unmarked) | 7.05 | -5.365 |
| `Cc1cccc(=O)n1CCC(=O)N1CC[C@@](O)(C2CCC2)[C@H](C)C1` | 5.673 | -12.39 |
| `COCCN(C)C(=O)c1ccccc1-n1cccn1` | -10.72 | 5.98 & -6.883 |
| `N#CCSCCCN1CCCC(C(=O)N2CCCCCC2)C1` (centres unmarked) | 19.77 | -17.33 & -4.454 |
| `Cc1ccc(N2CCCN(C(=O)CCc3ccsc3)CC2)nn1` | -32.73 | 1.861 |
| `CC(C)Nc1nc2c(c(NC3CC3)n1)CN(C(=O)Cc1ccsc1)CC2` | -13.02 & 15.8 | -14.39 |
| `Cc1noc(C(C)N2CCN(CC(=O)N3CCOCC3)CC2)n1` (centres unmarked) | -3.425 & -4.333 | 9.205 |
| `CCCN1CCC(CC(=O)N2CCC(C(O)c3nccn3C)CC2)CC1` (centres unmarked) | 1.057 & -17.39 | 4.544 |
| `Cc1cc(CN2CCC(C3Nc4ccccc4S(=O)(=O)N3)CC2)oc1C` (centres unmarked) | 20.05 | -11.12 |
| `O=C(C1CNCCN1C(=O)CCOc1ccccc1)N1CCCC1` (centres unmarked) | -12.44 | -3.318 |
| `COc1cc(C2CC(=O)Nc3c2c(=O)[nH]n3C2CCCCC2)ccc1O` (centres unmarked) | 10.61 & 4.742 | -3.582 |
| `NS(=O)(=O)CCNC(=O)CCc1cc(Br)cs1` | 24.51 | 6.243 |
| `Cc1cc(NCCCc2c(C)noc2C)nc(N)n1` | -10.21 & -3.051 | 15.22 |
| `CCCc1noc(C2CCCCN2C(=O)CCc2cnn(C)c2)n1` (centres unmarked) | 15.9 | 19.83 |
| `CC(C(=O)N1CCN(c2ccccc2)CC1)n1cc(Br)cn1` (centres unmarked) | 21.91 | 10.52 |
| `CNS(=O)(=O)c1ccc(CN2CCN(Cc3ncccc3C)CC2)cc1` | 0.8219 & -0.1556 | -1.998 |
| `Cl.Cn1cc([C@@H]2CN(S(C)(=O)=O)C[C@H]2N)c2ccncc21` | -14.36 | -6.157 & 4.64 |
| `CC(C)c1nc2c(n1C)CCN(CC(=O)Nc1ccncc1)C2` | 25.25 | -1.643 |
| `O=C(Cc1ccccc1)NCCNCc1cccc(O)c1` | -43.03 | -31.72 |
| `CCOc1cc(C(=O)N2CC=C(c3ccc(O)cc3)CC2)ccn1` | 7.972 | 0.6874 |
| `[H][C@@]12CC(=O)N(Cc3csc(C)n3)[C@@]1([H])CCN2S(=O)(=O)CC` | 4.891 | 15.82 |
| `COCCNC(=O)c1cc(-c2cc[nH]n2)n2ccccc12.O=C(O)C(F)(F)F` | -37.89 | -16.47 |
| `CNC(=O)CCc1cc(C)nc(C2CCN(c3cnccn3)CC2)c1` | -7.773 | -10.09 & -2.104 |
| `O=C(O)C(F)(F)F.O=C(O)C(F)(F)F.[H][C@@]12C[C@@H](OCc3cccnc3)CN1CCN(C(=O)c1ccc(F)cc1)C2` | 0.396 | -3.927 & 11.85 |
| `Clc1ccc(C2(CNC3=NCCN3)CC2)cc1.I` | 32.26 | -1.202 |
| `Cc1cc(C)nc(NCCC(=O)NCCn2ccc3ccccc32)n1` | 21.25 | -23.63 |
| `[H][C@@]12CCN(C(C)=O)C[C@@]1([H])[C@H](C(=O)NCc1ccco1)CCO2` | -18.17 | -27.72 |
| `O=C(O)C(F)(F)F.O=C(O)C(F)(F)F.O=C(O)C(F)(F)F.[H][C@@]12CN(Cc3ccccn3)C[C@]1([H])OCCN2c1ccc(C)nn1` | 24.29 | -11.67 |
| `CC(C)n1nc2c(cc1=O)CN(CCCN1CCCC1=O)CC2` | -38.25 | -40.86 |
| `Cc1noc(C)c1-c1nc(C2CCCN(C(=O)C(C)C)C2)ccc1CO` (centres unmarked) | -29.84 | -5.436 & -18.28 |
| `O=C1NCC(C(=O)NCc2ccccc2CN2CCOCC2)N1` (centres unmarked) | 0.6964 | 5.268 |
| `c1cnnc(N2CCCC2CNCc2ccsc2)c1` (centres unmarked) | -0.8098 | 9.796 |
| `COC(=O)c1ccc(C(=O)N2CCCC(Nc3ccc(F)cc3)C2)cc1` (centres unmarked) | 49.63 | 1.276 & 27.83 |
| `CCN1CCN(C(=O)COCc2nc(-c3ccncc3)no2)CC1` | 9.835 | -4.111 |
| `c1ccc(C(CC2CN(Cc3ncc[nH]3)CCO2)c2ccccc2)cc1` (centres unmarked) | 12.44 & -17.93 | -13.72 |
| `O=C(O)C(F)(F)F.OCCOCc1n[nH]c2c1CN(Cc1ccco1)C2` | -1.685 & 2.094 | -29.15 |
| `CN(Cc1nnc(-c2cccs2)o1)Cc1nc2c(s1)CCCC2` | 24.88 | 31.81 |
| `COc1cccc(-c2n[nH]c3c2CN(C(=O)c2oc(C)cc2C)CC3)c1` | 13.09 | -0.7453 & 0.7787 |
| `CC(NC(=O)N(C)Cc1ccsc1)c1ccc2c(c1)NC(=O)CO2` (centres unmarked) | -20.28 | -11.56 |
| `Cn1cc(NC(=O)Nc2ccccn2)cc(Cl)c1=O` | -26.12 | -19.85 |
| `O=C(CN1CCOC(c2ccc(Cl)s2)C1)NCc1ccco1` (centres unmarked) | 27.37 | 11.04 |

Some entries from above, unchanged:

SMILES	A	B
Cl.Cl.O[C@@H]1C[C@@](CNCc2ccc(F)cc2)(COc2cccnc2)C[C@@H]1O	-17.59 & 2.856	-11.05
Cc1cc(NCCCc2c(C)noc2C)nc(N)n1	-10.21 & -3.051	15.22
CCN1CCN(C(=O)COCc2nc(-c3ccncc3)no2)CC1	9.835	-4.111
O=C(c1cccs1)N1CCN(C(=O)c2ncoc2-c2ccco2)CC1	-9.406	6.025
CC(NC(=O)N(C)Cc1ccsc1)c1ccc2c(c1)NC(=O)CO2 (centres unmarked)	-20.28	-11.56
Cc1cc(C)nc(NCCC(=O)NCCn2ccc3ccccc32)n1	21.25	-23.63